# Test results: article PMC3517577
# These are yes or no findings as the source states them, for the method shown.
# B1: kinase domain of Somatic Embryogenesis Receptor-like Kinase 1 (SERK1-KD) (domain or fragment, UniProt Q94AG2 285-625)
# chain: GQLKRFSLRELQVASDGFSNKNILGRGGFGKVYKGRLADGTLVAVKRLKEERTPGGELQFQTEVEMISMAVHRNLLRLRGFCMTPTERLLVYPYMANGSVASCLRERPPSQPPLDWPTRKRIALGSARGLSYLHDHCDPKIIHRDVKAANILLDEEFEAVVGDFGLAKLMDYKDTHVTTAVRGTIGHIAPEYLSTGKSSEKTDVFGYGIMLLELITGQRAFDLARLANDDDVMLLDWVKGLLKEKKLEMLVDPDLQTNYEERELEQVIQVALLCTQGSPMERPKMSEVVRMLEGDGLAEKWDEWQKVEILREEIDLSPNPNSDWILDSTYNLHAVELSGPR
# Molecular target: kinase domain of Somatic Embryogenesis Receptor-like Kinase 1 (SERK1-KD) (Arabidopsis thaliana) (UniProt Q94AG2)
# Assay: SEC; analytical gel filtration on Superdex 75 10/300 GL, last step of the purification; concentration not given; both purified
binder,measurement,value
B1,binding,no binding
